Measurements taken from article PMC9879991, “Biomolecular condensates formed by designer minimalistic peptides” (Nature Communications, 2023).
No end group written: not given here.

Assay: NaCl-induced 13C chemical shift changes of WGR-1 at 5 and 20 mM
Details: for Average Δδ* [Hz], aa P: average over all P positions
[1] = 5mM peptide, first average column (high)
[2] = 5mM peptide, second average column (low)
[3] = 5 mM, with and without 100mM NaCl, pH 8, 300 K

WGRGRGRGWPGVGY [WGR-1]
Average Δδ* [Hz], aa P (5mM peptide): 1.44 Hz | Average Δδ* [Hz], aa R (5mM peptide, average over all R positions): 2.48 Hz | Average Δδ* [Hz], aa V (5mM peptide, average over all V positions): 2.36 Hz | Average Δδ* [Hz], aa Y (5mM peptide, average over all Y positions): 1.64 Hz | Average Δδ* [Hz], aa W1 [1]: 4.26 Hz | Average Δδ* [Hz], aa W9 [1]: 2.46 Hz | Average Δδ* [Hz], aa W1 [2]: 3.76 Hz | Average Δδ* [Hz], aa W9 [2]: 2.07 Hz | Δδ* 13Cα R (δ 56.31 ppm) [3]: 5.22 Hz | Δδ* 13Cα R (δ 56.42 ppm) [3]: -2.08 Hz | Δδ* 13Cα R (δ 56.62 ppm) [3]: -0.87 Hz | Δδ* 13Cα V (δ 62.41 ppm) [3]: 2.81 Hz | Δδ* 13Cα Vm (δ 62.18 ppm) [3]: 2.46 Hz | Δδ* 13Cα W1 (δ 57.35 ppm) [3]: -15.12 Hz | Δδ* 13Cα Y (δ 59.09 ppm) [3]: 0.97 Hz | Δδ* 13Cβ P (δ 32.77 ppm) [3]: 0 Hz | Δδ* 13Cβ R (δ 30.44 ppm) [3]: 3.62 Hz | Δδ* 13Cβ R (δ 30.49 ppm) [3]: 3.55 Hz | Δδ* 13Cβ R (δ 30.54 ppm) [3]: 2.6 Hz | Δδ* 13Cβ R (δ 30.69 ppm) [3]: -3.14 Hz | Δδ* 13Cβ R (δ 30.7 ppm) [3]: -1.51 Hz | Δδ* 13Cβ V (δ 32.84 ppm) [3]: -0.97 Hz | Δδ* 13Cβ Vm (δ 33.02 ppm) [3]: 5.19 Hz | Δδ* 13Cβ W9m (δ 29.07 ppm) [3]: 1.13 Hz | Δδ* 13Cβ W (δ 31.66 ppm) [3]: -33.31 Hz | Δδ* 13Cβ W (δ 31.86 ppm) [3]: -1.53 Hz | Δδ* 13Cβ Y (δ 39.36 ppm) [3]: 0.34 Hz | Δδ* 13Cβ Ym (δ 39.39 ppm) [3]: 0.21 Hz | Δδ* 13Cγ P (δ 27.22 ppm) [3]: 0.11 Hz | Δδ* 13Cγ Pm (δ 24.15 ppm) [3]: 2.67 Hz | Δδ* 13Cγ R (δ 26.77 ppm) [3]: 4.08 Hz | Δδ* 13Cγ R (δ 26.86 ppm) [3]: 3.24 Hz | Δδ* 13Cγ R (δ 26.94 ppm) [3]: 4.26 Hz | Δδ* 13Cγ R (δ 27.03 ppm) [3]: 3.07 Hz | Δδ* 13Cγ V (δ 20.36 ppm) [3]: 1.45 Hz | Δδ* 13Cγ V (δ 21.06 ppm) [3]: 2.82 Hz | Δδ* 13Cγ Vm (δ 20.01 ppm) [3]: 2.26 Hz | Δδ* 13Cγ Vm (δ 21.03 ppm) [3]: 2.22 Hz | Δδ* 13Cγ W1 (δ 110.85 ppm) [3]: -34 Hz | Δδ* 13Cγ W9 (δ 110.35 ppm) [3]: 1.88 Hz | Δδ* 13Cγ W9m (δ 110.76 ppm) [3]: 2.94 Hz | Δδ* 13Cγ Y (δ 131.87 ppm) [3]: 2.84 Hz | Δδ* 13Cγ Ym (δ 131.85 ppm) [3]: 2.61 Hz | Δδ* 13Cδ1 W1 (δ 127.65 ppm) [3]: 11.8 Hz | Δδ* 13Cδ1 W9 (δ 127.31 ppm) [3]: 1.01 Hz | Δδ* 13Cδ1 W9m (δ 127.47 ppm) [3]: 1.25 Hz | Δδ* 13Cδ2 W1 (δ 129.52 ppm) [3]: -2.18 Hz | Δδ* 13Cδ2 W9 (δ 129.48 ppm) [3]: 1.66 Hz | Δδ* 13Cδ2 W9m (δ 129.36 ppm) [3]: 1.6 Hz | Δδ* 13Cδ P (δ 50.76 ppm) [3]: 2.69 Hz | Δδ* 13Cδ Pm (δ 49.86 ppm) [3]: 0.97 Hz | Δδ* 13Cδ R (δ 43.08 ppm) [3]: 3.55 Hz | Δδ* 13Cδ R (δ 43.14 ppm) [3]: 3.63 Hz | Δδ* 13Cδ R (δ 43.23 ppm) [3]: 3.76 Hz | Δδ* 13Cδ R (δ 43.27 ppm) [3]: 4.3 Hz | Δδ* 13Cδ R (δ 43.29 ppm) [3]: 3.06 Hz | Δδ* 13Cδ Y (δ 133.28 ppm) [3]: 0.74 Hz | Δδ* 13Cε2 W1 (δ 138.96 ppm) [3]: 1.32 Hz | Δδ* 13Cε2 W9 (δ 138.76 ppm) [3]: 0.75 Hz | Δδ* 13Cε2 W9m (δ 138.89 ppm) [3]: 0.58 Hz | Δδ* 13Cε W1 (δ 120.97 ppm) [3]: -0.14 Hz | Δδ* 13Cε W9 (δ 120.81 ppm) [3]: 3.85 Hz | Δδ* 13Cε W9m (δ 120.73 ppm) [3]: 2.6 Hz | Δδ* 13Cε Y (δ 117.99 ppm) [3]: 2.69 Hz | Δδ* 13Cε Ym (δ 118.15 ppm) [3]: 1.31 Hz | Δδ* 13Cζ2 W1 (δ 114.65 ppm) [3]: 3.84 Hz | Δδ* 13Cζ2 W9 (δ 114.67 ppm) [3]: 1.51 Hz | Δδ* 13Cζ2 W9m (δ 114.7 ppm) [3]: 2.38 Hz | Δδ* 13Cζ3 W (δ 122.03 ppm) [3]: 5.86 Hz | Δδ* 13Cζ3 W (δ 122.18 ppm) [3]: 2.36 Hz | Δδ* 13Cζ Y (δ 156.94 ppm) [3]: 0 Hz | Δδ* 13Cζ Ym (δ 156.96 ppm) [3]: -0.47 Hz | Δδ* 13Cη2 W1 (δ 124.67 ppm) [3]: 4.66 Hz | Δδ* 13Cη2 W9 (δ 124.71 ppm) [3]: 1.94 Hz | Δδ* 13Cη2 W9m (δ 124.84 ppm) [3]: 0.26 Hz | Δδ* C' Gm (δ 172.81 ppm) [3]: 3.31 Hz | Δδ* C' Gm (δ 172.85 ppm) [3]: 2.78 Hz | Δδ* C' Gm (δ 173.02 ppm) [3]: 0.65 Hz | Δδ* C' P10 (δ 177.15 ppm) [3]: 2.71 Hz | Δδ* C' R (δ 176.73 ppm) [3]: 2.7 Hz | Δδ* C' R (δ 176.75 ppm) [3]: 3.99 Hz | Δδ* C' R (δ 176.83 ppm) [3]: -1.51 Hz | Δδ* C' R (δ 176.9 ppm) [3]: 1.94 Hz | Δδ* C' R (δ 176.91 ppm) [3]: 1.82 Hz | Δδ* C' V (δ 176.44 ppm) [3]: 2.39 Hz | Δδ* C' Vm (δ 176.34 ppm) [3]: 2.26 Hz | Δδ* C' W1 (δ 177.56 ppm) [3]: -86.1 Hz | Δδ* C' W9 (δ 174.72 ppm) [3]: 5.22 Hz | Δδ* C' W9m (δ 175.29 ppm) [3]: -1 Hz | Δδ* C' Y14 (δ 180.27 ppm) [3]: 4.25 Hz | Δδ* C=NH R (δ 159.27 ppm) [3]: 0.33 Hz | Δδ* C=NH R (δ 159.35 ppm) [3]: 0.35 Hz | Δδ* C=NH R (δ 159.48 ppm) [3]: 0 Hz | Average Δδ* [Hz], aa P (20mM peptide): 6.93 Hz
